# Results of single-concentration screens

Values are the deposited “Percent Effect”, in %. How 0% and 100% were set is not recorded. Most values in the screen are low, and negative values occur. The compounds are a random part of those screened.

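Whole-parasite assay of Trypanosoma brucei over 72 hours; the read-out is not stated. Compounds at 10 µM. The record gives no direction; compounds that gave an IC50 in retests scored well above the rest, so higher reads as stronger inhibition. Values scatter widely below zero; nearly all retest evidence comes from the higher of the two concentrations used. Of about 2,700 compounds tested this way, about 14 (0.51%) reached 50% or more in at least one test.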

| compound | Percent Effect |
|---|---|
| `CCN1CCN(c2ccc(CNC(=O)c3ccccc3F)cn2)CC1` | -9.677 |
| `Cc1nc2n(n1)CC(NCc1nc(-c3ccccn3)no1)CC2` (configuration not stated) | -26.04 |
| `CC(=O)N1CCN(C(=O)c2csc(-c3ccc(C)cc3C)n2)CC1` | -21.97 |
| `CN(C)c1ncccc1CNS(=O)(=O)c1c(F)cccc1F` | -32.69 |
| `COc1ccc(C(=O)N2CCC(Nc3cccnn3)CC2)c(F)c1` | -0.1265 |
| `Cc1nc(C)n(C2CCCN(C(=O)c3ccc(O)nc3)C2)n1` (configuration not stated) | -79.94 |
| `Cc1nn(C)c(N(C)C)c1CNCCOc1ccc2c(c1)OCO2.Cl` | -62.44 |
| `Cc1ccc(-c2nc(C(=O)N3CCOCC3)cs2)c(C)c1` | -63.33 |
| `Cc1nc2c(c(C)c1CC(=O)NCc1cccs1)c(=O)[nH]n2C` | -49.47 |
| `Cc1cnn(CC2CCCCN2C(=O)c2nccnc2N)c1` (configuration not stated) | -46.74 |
| `Cc1cnn(CCNCC(O)COc2c(Cl)cccc2Cl)c1` (configuration not stated) | 20.96 |
| `Cc1nc(CN(C)C2CCN(CCCc3ccccc3)C2)no1` (configuration not stated) | -27.89 |
| `Cc1ccc(OCCN(C)C(=O)NC(C)c2nncn2C)cc1` (configuration not stated) | -23.13 |
| `Cc1nnc(CN(C)C2CCN(Cc3nc4ccccc4n3C)C2)o1` (configuration not stated) | -36.12 |
| `CCN(Cc1cccc2c1OCO2)C(=O)NCc1ccccn1` | -34.89 |

2 of the entries, repeated:

{"compound": "Cc1nnc(CN(C)C2CCN(Cc3nc4ccccc4n3C)C2)o1", "stereo": "configuration not stated", "Percent Effect": -36.12}
{"compound": "CC(=O)N1CCN(C(=O)c2csc(-c3ccc(C)cc3C)n2)CC1", "Percent Effect": -21.97}

The values are deposited in ChEMBL (CHEMBL3988442, “University of Dundee, Small-Polar-MMV Screening Library” (2021)).